# Test: In vitro metabolic study in human liver microsome incubation system
# Details: human liver microsomes 0.5 mg protein/mL, NADPH, 37° C.
# Protocol: Instruments, conditions and parameters: liquid chromatography-mass spectrometry system (LC/MS/MS, Shimadzu LC 30-AD, MS API 4000); the chromatographic column was ACQUITY UPLC BEH C18 column (1.7 μm 2.1×50 mm Column, Part No. 186002350); the mobile phase was acetonitrile-water-formic acid (50:50:0.1); the flow rate was 0.7 mL/min; the injection volume was 5μL; the column temperature was room temperature. An electrospray ionization (ESI) source was adopted with a spray voltage of 4.8 KV; the capillary temperature (TEM) was 300° C.; the sheath gas was N2, and the flow rate was 10 psi; the auxiliary gas was N2, and the flow rate was 1 psi; the collision-induced dissociation (CID) gas was Ar, and the pressure was 1.5 mTorr. The mass spectrometry scan mode was mass spectrometry multiple reaction monitoring (MRM), and the positive ion mode was used for detection.
# About 10 mg of each of the samples to be tested was precisely weighed out and dissolved in 0.1 mL of DMSO, and the solution was stepwise diluted with purified water to prepare 10 μM and 1 μM standard stock solutions. In an ice bath, the detection incubation system was prepared according to Table 3. NADPH was added to the incubation system (see Table 4 for its composition) to start a reaction, and 50 μL of the resulting mixture was taken immediately and added to 150 μL of acetonitrile as a time-zero sample and a 1 μM standard curve sample. Another 1 μM standard stock solution was added to the incubation system, and 50 μL of the resulting mixture was taken immediately and added to 150 μL of acetonitrile as a 0.1 μM standard curve sample. […] Each sample was shaken and centrifuged at 18,000 g for 10 min, and a sample of the supernatant was taken and injected for LC/MS/MS analysis.
smiles,measurement,setting,value
"CCCNCC(O)COc1ccccc1C(=O)CCc1ccccc1 (stereo not drawn) [Propafenone, propafenone]",Concentration of the compound to be tested (parent),incubation time 0 min,1000 nM
same,Concentration of the compound to be tested (parent),incubation time 5 min,851 nM
same,Concentration of the compound to be tested (parent),incubation time 15 min,597 nM
same,Concentration of the compound to be tested (parent),incubation time 30 min,232 nM
same,Concentration of the compound to be tested (parent),incubation time 45 min,25 nM
same,Concentration of the compound to be tested (parent),incubation time 60 min,4 nM

# Reference: patent US20240383942A1, “WATER-SOLUBLE ALLOPR[…], AND PREPARATION METHOD THEREFOR AND USE THEREOF” (NANJING MINOVA PHARMACEUTICAL CO., LTD., priority 2021, published 2024)
